The text below walks through data of PubChem BioAssay AID651660 (Broad Institute, 2012).

Protein sequences, listed by entry. Tags and fused reporters are not part of them. Lines headed by an entry give the natural chain unless they say otherwise; changes in a name come on top.
UniProt P43351: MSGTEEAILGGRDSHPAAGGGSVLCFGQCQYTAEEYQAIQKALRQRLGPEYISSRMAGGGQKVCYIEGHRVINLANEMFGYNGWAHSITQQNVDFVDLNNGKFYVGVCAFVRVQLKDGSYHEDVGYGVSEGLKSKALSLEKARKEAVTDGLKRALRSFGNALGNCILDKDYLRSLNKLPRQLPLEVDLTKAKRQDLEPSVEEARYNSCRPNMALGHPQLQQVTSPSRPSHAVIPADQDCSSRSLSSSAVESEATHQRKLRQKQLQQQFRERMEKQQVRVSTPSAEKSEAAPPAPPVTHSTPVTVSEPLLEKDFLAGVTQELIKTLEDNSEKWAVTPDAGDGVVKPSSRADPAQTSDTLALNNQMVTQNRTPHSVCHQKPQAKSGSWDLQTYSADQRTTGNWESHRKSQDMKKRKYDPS

SMILES strings stand for the structures. “And” between values parts separate entries of the source, which are not always exact repeats. Equal values may be shown once. Out of some 1,900 compounds screened, about 15 (0.8%) were called active.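 The calls were made as follows: active = every replicate shows at least 50% inhibition; inconclusive = mean inhibition at least 50% but some replicate below; inactive = the rest.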 The list shows a part of the results. Residues, ends and D or L forms follow the SMILES beside them.

This assay addresses DNA repair protein RAD52 homolog (Homo sapiens) (UniProt P43351). Nature of the assay: inhibition of RAD52-mediated strand annealing – biochemical, FRET, single point, primary screen (AID 651660).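 Also: 0% = median of neutral control wells and 100% = median of positive control wells.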 Conditions: Recombinant RAD52 ssDNA annealing, FRET fluorescence, 30 min; at 18.7 µM; stronger effect = higher value.
As to `Cc1cccc(C)c1NC1=NCCCS1`, the inhibition is inactive: -3.1%.
On to `CCNC(=O)[C@H]1O[C@@H](n2cnc3c(N)ncnc32)[C@H](O)[C@@H]1O`, for which the inhibition is inactive: -1.79%.
For the molecule `CCn1ccnc1CN1CCCC(C(=O)c2cc(F)ccc2OC)C1` (stereo not drawn), the inhibition is inactive: -1.46%.
In the case of `C=C1[C@@H](C)[C@H]2[C@H](Cc3ccccc3)NC(=O)[C@]23OC(=O)/C=C/[C@H](O)CCC[C@@H](C)C/C=C/[C@H]3[C@@H]1O`, the inhibition is inactive: -0.777%.
For the molecule `C[N+]1(C)[C@@H]2CC[C@H]1CC(OC(=O)C(CO)c1ccccc1)C2` (stereo partly drawn), the inhibition is inactive: -3.53%.
Then `CCOC(=O)C1=C(C)OC(N)=C(C(=O)OCC)[C@@]12C(=O)N(CC(N)=O)c1ccccc12`, with inactive: 8.41%; and `CC/C(=C\C=C\[C@@H]1C=C[C@@H]2CCC[C@H]2[C@@H]1C(=O)c1ccc[nH]1)[C@@H]1O[C@@H]([C@@H](C)C(=O)O)CC[C@@H]1C`, with inactive: -21.4%.
The result for `Cc1nc2ccccc2c(=O)n1-c1ccc(C(=O)O)cc1` reads inactive: -2.62%.
Consider `Cc1c2ccncc2c(C)c2c1[nH]c1ccccc12`, for which the inhibition was inactive: 12.7%.
Turning to `COc1cc(/C=C2\C(=O)NC(=O)N(c3ccccc3)C2=O)c([N+](=O)[O-])cc1OC`, the inhibition was inactive: -77.9%.
The result for `NC(=O)CN1CCCC1=O` reads inactive: -1.58%.
For the molecule `Cc1cc(OCc2cc(C(=O)O)oc2C)c2c3c(c(=O)oc2c1)CCCC3`, the inhibition is inactive: -16.7%.
Then `O=C1NC(=O)C2(Cc3ccccc3N3CCCC32)C(=O)N1c1ccc(Cl)cc1` (stereo not drawn), with inactive: -34%; and `CCOC(=O)C(C)Oc1cc(C)cc2oc(=O)c3c(c12)CCCC3` (stereo not drawn), with inactive: -11.6%; and `O=C1C(=O)c2ccccc2-c2ccccc21`, with inactive: -11%.
Then `CN1C2CCC1CC(OC(=O)CCN1CCCC1)C2` (stereo not drawn), with inactive: -2.12%.
The result for `C[N+](C)(C)Cc1ccccc1` reads inactive: -0.327%; that for `O=c1[nH]c(=S)n(-c2ccccc2)c(O)c1/C=N/N1CCCCC1c1cccnc1` (stereo not drawn), inactive: -92.1%; that for `CN1CC[C@@]23CCCC[C@@H]2[C@@H]1Cc1ccc(O)cc13`, inactive: 1.8%.
For the molecule `CC(C)(C)NCC(O)c1cc(Cl)c(N)c(Cl)c1` (stereo not drawn), the inhibition is inactive: -12.2%.
Take `CN1C2CCC1CC(OC(=O)c1ccc(Cl)cc1)C2` (stereo not drawn): the inhibition is inactive: -12.3%.
Then `CCOC(=O)c1cc2c(cn1)[nH]c1ccccc12`, with inactive: 11.1%; and `COc1ccc(Cc2nccc3cc(OC)c(OC)cc23)cc1OC`, with inactive: 19%; and `CC1CCC[C@H](O)CCCCCc2cc(O)cc(O)c2C(=O)O1` (stereo partly drawn), with inactive: 15.5%.
Then `CC12CN3CC(C)(CN(C1)C3c1cccs1)C2O` (stereo not drawn), with inactive: -10.9%; and `Clc1ccc(C2NCCc3[nH]cnc32)cc1` (stereo not drawn), with inactive: 16.7%; and `COP(=S)(OC)SCN1C(=O)c2ccccc2C1=O`, with inactive: 5.59%.
With `COC1=CC(=O)OC(/C=C/c2ccccc2)C1` (stereo not drawn), the inhibition is inactive: 2.33%.
Then `C[C@H]1CCC[C@H](O)CCCCCc2cc(O)cc(O)c2C(=O)O1`, with inactive: -0.964%.
As to `CCN1CC2(COC(=O)c3ccccc3N)CCC(OC)C34C5CC6C(OC)CC(O)(C5C6OC)C(O)(C(OC)C23)C14` (stereo not drawn), the inhibition is inactive: 5.95%.
Then `COc1ccc(OC)c([C@@H](O)[C@H](C)NC(C)(C)C)c1`, with inactive: -7.88%; and `CC(C)NC(C)C(=O)c1ccc2ccccc2c1` (stereo not drawn), with inactive: 5.99%; and `COc1ccc2c3c([nH]c2c1)C(C)=NCC3`, with inactive: 9.54%.
With `Fc1ccc(C(OCCN2CCCC2)c2ccc(Br)cc2)cc1` (stereo not drawn), the inhibition was inactive: 9.47%.
Then `[N-]=[N+]=CC(=O)OC[C@H](N)C(=O)O`, with inactive: -2.26%; and `O=S(=O)(c1ccc(F)cc1)N1CCCCC1c1cccnc1` (stereo not drawn), with inactive: 4.17%.
With `CC(=O)C1=C(C)OC(N)=C(C(=O)OC(C)C)C12C(=O)Nc1ccccc12` (stereo not drawn), the inhibition was inactive: 2.27%.
The result for `C[N+]1(C)CCN(c2ccccc2)CC1` reads inactive: 0.463%; that for `CC(C)CC12CN3CCN(CC(C3)C1O)C2` (stereo not drawn), inactive: -12.2%.
Then `CC12CCC3C(CC=C4CC5(CCC43C)OCCO5)C1CCC2=O` (stereo not drawn), with inactive: -3.98%; and `CC(C)[C@@]1(NC(=O)[C@@H]2C[C@@H]3c4cccc5[nH]cc(c45)C[C@H]3N(C)C2)O[C@@]2(O)[C@@H]3CCCN3C(=O)[C@H](Cc3ccccc3)N2C1=O`, with inactive: -26.7%; and `CCOc1ccc(C2C(C#N)=C(N)Oc3c2c(=O)oc2ccccc32)cc1` (stereo not drawn), with inactive: -2.8%.
Then `COc1ccc(C(=O)N2CCCC2=O)cc1`, with inactive: 0.401%; and `O=C(O)CCCc1ccc(N(CCCl)CCCl)cc1`, with inactive: -14.6%; and `C[N+]1(C)CCOC(O)(c2ccc(-c3ccc(C4(O)C[N+](C)(C)CCO4)cc3)cc2)C1` (stereo not drawn), with active: 61.8%.
On to `Nc1ccncc1`, for which the inhibition is inactive: 0.701%.
On to `C[C@]12CCC(=O)C=C1CC[C@@H]1[C@@H]2C(=O)C[C@]2(C)C(=O)CC[C@@H]12`, for which the inhibition is inactive: -2.13%.
For `NNC(=O)c1ccc(Cl)cc1`, the inhibition is inactive: -6.99%.
Then `COc1cc2c3cc1Oc1cc(ccc1O)C[C@@H]1c4c(cc(OC)c(O)c4Oc4ccc(cc4)C[C@H]3N(C)CC2)CCN1C`, with active: 77.6%; and `CCNC(=S)N(C)CCc1cc2c(c(OC)c1C=C1C(=O)N(C)C(=O)N(C)C1=O)OCO2`, with inactive: -15%; and `Cc1cc(Cl)ccc1OCC(=O)O`, with inactive: -15.5%.
The result for `CN1C(=O)N(C)C(=O)C2(Cc3ccccc3N3CCOCC32)C1=O` (stereo not drawn) reads inactive: -0.534%; that for `CC(CCc1ccccc1)NC(C)C(O)c1ccc(O)cc1` (stereo not drawn), inactive: 4.36%.
In the case of `CC(C)C[C@H](NC(=O)[C@@H]1CCCN1C(=O)[C@@H](N)Cc1ccc(O)cc1)C(=O)NCC(N)=O` (H-YPLG-NH2), the inhibition is inactive: 5.56%.
As to `C[C@H](O)[C@H]1CC[C@H]2[C@@H]3CCC4=CC(=O)CC[C@]4(C)[C@H]3CC[C@]12C`, the inhibition was inactive: 5.86%.
The result for `O=C1CN=C(c2ccccc2F)c2cc(Cl)ccc2N1` reads inactive: 2.44%; that for `Clc1ccc(CSC(Cn2ccnc2)c2ccc(Cl)cc2Cl)cc1` (stereo not drawn), inactive: 49.4%; that for `CCCC[N+]1(C)[C@@H]2CC(OC(=O)[C@H](CO)c3ccccc3)C[C@H]1[C@@H]1O[C@@H]12` (stereo partly drawn), inactive: 2.96%.
Then `CC(=O)OC1C2CCC1C(N1CCCC1)CC2` (stereo not drawn), with inactive: -8.19%; and `C[C@]12CC[C@@H](O)C[C@@H]1CC[C@@H]1[C@@H]2CC[C@]2(C)[C@@H](O)CC[C@@H]12`, with inactive: -0.831%; and `OC1CCCCC1N1CCC(c2ccccc2)CC1` (stereo not drawn), with inactive: -36.8%.
Then `COc1ccc2c(c1)CC1(CN2C)C(=O)NC(=O)N(CCc2ccccc2)C1=O` (stereo not drawn), with inactive: -27%.
As to `C[C@H]1CCCC(=O)CCC/C=C/c2cc(O)cc(O)c2C(=O)O1`, the inhibition was inactive: 0.365%.
The result for `Cc1ccsc1C(=O)C1CCCN(Cc2cc3ccccc3o2)C1` (stereo not drawn) reads inactive: -1.76%; that for `Cc1ccc(-n2c(C)cc(/C=C3/C(=O)NC(=O)N(C)C3=O)c2C)cc1`, inactive: -22%; that for `CC(Cc1ccccc1)NCC(=O)Nc1cc(N(C)C)nc2ccccc12` (stereo not drawn), inactive: 19%.
The result for `CC[C@@H]1C(=O)OC[C@@H]1Cc1cncn1C` reads inactive: -7.49% and inactive: -2.25%; that for `C#CCN(C)C(C)Cc1ccccc1` (stereo not drawn), inactive: 4.83%.
Then `O=c1[nH]c2ccccc2n1CCCN1CCC(n2c(=O)[nH]c3cc(Cl)ccc32)CC1`, with inactive: 13.1%; and `C[C@@H]1O[C@@H](O[C@H]2C[C@@H](O)[C@]3(CO)[C@H]4[C@H](O)C[C@]5(C)[C@@H](C6COC(=O)C6)CC[C@]5(O)[C@@H]4CC[C@]3(O)C2)[C@H](O)[C@H](O)[C@H]1O` (stereo partly drawn), with inactive: -0.228%.
For the molecule `CC(C)[N+](C)(CCC(C(N)=O)(c1ccccc1)c1ccccc1)C(C)C`, the inhibition was inactive: -5.25%.
The result for `C#C[C@]1(O)CC[C@H]2[C@@H]3CCC4=CC(=O)CC[C@]4(C)[C@H]3CC[C@@]21C` reads inactive: -2.41%; that for `O=C1CCCC2=C1C(c1cccnc1)Nc1ccccc1N2` (stereo not drawn), inactive: -8.7%; that for `CC12CC[C@H]3[C@@H](CCC4(O)C[C@H](O)CCC34/C=N/NC(=O)Cc3ccccc3)C1(O)CCC2C1=CC(=O)OC1` (stereo partly drawn), inactive: 8.4%.
Then `CC12CN3CC(C)(CN(C1)C31CCOCC1)C2=O`, with inactive: -24.6%; and `C[C@]12CC[C@@H](O)C[C@@H]1CC[C@@H]1[C@@H]2CC[C@]2(C)C(=O)CC[C@@H]12`, with inactive: 2.22%.
On to `CC[C@]12C=CCN3CCC4(c5cc(Br)c(OC)cc5N(C)C4[C@@](O)(C(=O)OC)[C@@H]1OC(C)=O)C32` (stereo partly drawn), for which the inhibition is inactive: 6.35%.
Then `CC12CCC3C(CC=C4CC(O)CCC43C)C1C/C(=C\c1cccc(F)c1)C2=O` (stereo not drawn), with inactive: -7.99%; and `CCC1(c2ccccc2)C(=O)N(COC)C(=O)N(COC)C1=O`, with inactive: -5.47%; and `O=c1cccc2n1C[C@H]1C[C@@H]2CN2CCCC[C@@H]12`, with inactive: 2.56%.
In the case of `NCC1(c2ccc3c(c2)OCCO3)CCCC1`, the inhibition was inactive: -3.46%.
Turning to `CN1C(=O)CN=C(c2ccc(Cl)cc2)c2cc(Cl)ccc21`, the inhibition is inactive: 1.83%.
Then `O=C1CC[C@@]2(O)[C@H]3Cc4ccc(O)c5c4[C@@]2(CCN3CC2CC2)[C@H]1O5`, with inactive: -7.66%.
Then `C[N+]1(C)[C@@H]2CC(OC(=O)[C@H](CO)c3ccccc3)C[C@H]1[C@@H]1O[C@@H]12` (stereo partly drawn), with inactive: -3.35% and inactive: -6.65%; and `S=C1NCCN1`, with inactive: -9.58%.
Then `C[N+]1(C)C2CCC1CC(OC(=O)C(CO)c1ccccc1)C2` (stereo not drawn), with inactive: -3.1%; and `CC(C)(C)C(O)C(Oc1ccc(Cl)cc1)n1cncn1` (stereo not drawn), with inactive: -119%.
Regarding `C[C@H]1CC[C@@]2(C)[C@@H](CC[C@@H]3[C@@H]2CC[C@]2(C)[C@@H](O)CC[C@@H]32)C1`, the inhibition is inactive: 6.01%.

In general, inhibition refers to the relative decrease from the control value, in per cent.
